# Measured values published in PubChem BioAssay AID504834 (National Center for Advancing Translational Sciences (NCATS), 2011).
# About 22,000 (6.9%) of roughly 320,000 compounds were called active. This list was built around the results that the source calls inconclusive (neither active nor inactive); the mix of calls is not that of the screen. The call rests on the fitted dose curve; in most records, active means well fitted inhibition curve with a large enough effect; inconclusive means small, poorly fitted or top-dose-only effect, or another doubt; inactive means no such curve, though single readings can be large or run the other way. Potencies of inconclusive entries are doubtful fits and often do not repeat.
# Test: Primary qHTS for delayed death inhibitors of the malarial parasite plastid, 96 hour incubation
# Conditions: P. falciparum luciferase reporter growth; series mostly up to 28.7 µM; activity change, negative = inhibition: at the top concentration
# In short: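 Readout is luminescence from an integrated firefly luciferase in P. falciparum. Red cells, 2% hematocrit and 0.05% parasitemia final, were cultured with compound through two parasite generations (96 hours) at 37 C, 5% CO2.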
# On the % scale 0 is the no-effect control and ±100 the full control effect; potency means the concentration at half of the fitted maximal effect.
SMILES,Potency,"activity change, negative = inhibition"
O=c1c2ccccc2nc(SCc2cccc(F)c2)n1-c1cccc(S(=O)(=O)N2CCCC2)c1,active: 6.57 µM,
O=C(Nc1ccc2oc(=O)ccc2c1)c1ccc2ccccc2c1,"inconclusive: 9.28 µM [inhibitor, single point]",
O=C(c1c(F)cccc1F)N1CCN(c2cccc(C(F)(F)F)c2)CC1,"inconclusive: 18.5 µM [inhibitor, single point]",
Clc1ccc(/C=C/c2nc(Cl)c(-c3ccc(Cl)cc3)c(Cl)n2)cc1,"inconclusive: 1.17 µM [inhibitor, partial curve, poor fit]",
Nc1cc(Oc2ccc(F)cc2F)cc([N+](=O)[O-])c1,,inactive: -18.4%
CC(C)(C)N(Cc1ccccc1)C(=O)COC(=O)[C@@H]1CCCN1C(=O)c1cccs1,"inconclusive: 18.5 µM [inhibitor, single point]",
COc1ccc(-c2sc3ccc(OC)cc3c2C#Cc2ccccn2)cc1,active: 2.33 µM,
COc1cc(CN2CCc3ccccc3C2)ccc1O,,inactive: 7.01%
O=C(O)Cn1cccc1C(=O)c1ccccc1,"inconclusive: 6.57 µM [inhibitor, partial curve, poor fit]",
Cc1ccccc1-n1c(C)cc(/C=C2/C(=N)N3C(c4ccccc4)=CSC3=NC2=O)c1C,"inconclusive: 18.5 µM [inhibitor, single point]",
CCOc1nc(Nc2ccccc2)nc(OCC)n1,"inconclusive: 18.5 µM [inhibitor, single point]",
COc1ccccc1N1CCN(C(=O)c2sc3nc(-c4ccc(F)cc4)cn3c2C)CC1,"inconclusive: 18.5 µM [inhibitor, single point]",
CCOCCn1c(CN2CCC(C)CC2)nc2c1c(=O)n(C)c(=O)n2C,"inconclusive: 20.8 µM [inhibitor, single point]",
O=C(CCCN1C(=O)/C(=C/c2ccccc2Cl)SC1=S)N1CCCC1,active: 9.28 µM,
Cc1ccc(CNC(=O)c2ccc(C#CC(C)(C)O)s2)cc1,"inconclusive: 14.7 µM [inhibitor, single point]",
CCc1nnc(NC(=O)CSc2ccc(-c3nc4ccccc4[nH]3)cn2)s1,,inactive: 69.2%
O=C(O)c1cccc(Nc2nc(-c3ccccc3)nc3ccccc23)c1,"inconclusive: 10.4 µM [inhibitor, single point]",
CC(C(=O)N1CCCC1)N1CCN(S(=O)(=O)c2ccc(OC(F)(F)F)cc2)CC1 (stereo not drawn),"inconclusive: 10.4 µM [inhibitor, partial curve]",
O=S(=O)(c1ccc(F)cc1)N(CCO)CC(O)Cn1c2ccccc2c2ccccc21 (stereo not drawn),"inconclusive: 18.5 µM [inhibitor, single point]",
CC(=O)c1c(C)[nH]c(C(=O)C(C)Sc2nnc(NC3CC3)s2)c1C (stereo not drawn),active: 9.28 µM,
CCOC(=O)C1=C(CS(=O)(=O)c2ccc(F)c(C)c2)NC(=O)NC1c1ccc(O)c(O)c1 (stereo not drawn),,inactive: 2.53%
COc1ccc(C(=O)/C(=C/N(C)C)S(=O)(=O)c2ccccc2)cc1,,inactive: 138%
COc1ccccc1N1CCN(C(=O)C2CCN(S(=O)(=O)c3ccc4c(c3)CC(C)N4C(C)=O)CC2)CC1 (stereo not drawn),,inactive: 17.1%

SMILES,Potency,"activity change, negative = inhibition"
Cc1cc(/C=C2/C(=O)NC(=O)N(Cc3ccco3)C2=O)c(C)n1-c1ccccc1O,"inconclusive: 7.38 µM [inhibitor, partial curve, poor fit]",
COc1ccc(CNC(=O)CS(=O)Cc2nc(-c3ccc(C)cc3)oc2C)cc1 (stereo not drawn),active: 7.38 µM,
CCOC(=O)C(NC(=O)NCc1ccc(OC)cc1)(OCC)C(F)(F)F (stereo not drawn),active: 9.28 µM,
COc1ccc(OCC(=O)N2N=C(C(F)F)CC2(O)C(F)F)cc1 (stereo not drawn),,inactive: -5.71%
Cc1ccc(-n2c(C)nnc2SCC(=O)N(C)C2CCS(=O)(=O)C2)cc1 (stereo not drawn),"inconclusive: 18.5 µM [inhibitor, single point]",
O=C(CNS(=O)(=O)c1ccc(Br)s1)NC1CCCc2ccccc21 (stereo not drawn),"inconclusive: 1.65 µM [inhibitor, full curve, poor fit]",
COc1cc(CNCCc2ccc(S(N)(=O)=O)cc2)ccc1OCC(=O)N1CCCCC1,active: 4.15 µM,
Cc1cc(OCC(=O)N[C@@H](Cc2ccccc2)C(=O)O)c2c3c(c(=O)oc2c1)CCCC3,"inconclusive: 18.5 µM [inhibitor, single point]",
CCOC(=O)C(NCCc1ccccc1F)(NC(C)=O)C(F)(F)F (stereo not drawn),"inconclusive: 9.28 µM [inhibitor, single point]",
C/C(=N\Nc1ccc(Cl)c(C(=O)O)c1)c1ccc(N2CCOCC2)cc1,,inactive: 1.97%
O=C(Oc1ccc2ccccc2c1Cl)N1CCCC1,"inconclusive: 18.5 µM [inhibitor, single point]",
CCn1c(SCC(=O)c2c(N)n(C3CC3)c(=O)[nH]c2=O)nc2cc(S(N)(=O)=O)ccc21,"inconclusive: 14.7 µM [inhibitor, single point]",
O=C(/C=C/c1cccs1)NC1CCCC1,,inactive: 34%
O=C1c2ccccc2C(=O)N1CCCC[C@]12Cc3ccccc3C(O1)c1c(c3ccccc3oc1=O)O2,"inconclusive: 1.51 µM [inhibitor, partial curve, poor fit]",
c1ccc(P(c2ccccn2)c2ccccn2)cc1,"inconclusive: 2.33 µM [inhibitor, single point]",
Cc1ccccc1NC(=O)Cc1nc(COC(=O)c2ccc([N+](=O)[O-])cc2)cs1,,inactive: 25.8%
Cc1ccc(C)c(-c2csc(NC(=O)C3=COCCO3)n2)c1,"inconclusive: 11.7 µM [inhibitor, single point]",
O=C(/C=C/c1ccccc1Cl)N1CCN(c2ncccn2)CC1,,inactive: 42.9%
Cc1ccc(OCCOC(=O)c2sc(=S)n(C)c2C)cc1,"inconclusive: 14.7 µM [inhibitor, partial curve, poor fit]",
Cc1ccc(C(=O)N/C(=C\c2ccc(-c3cc(Cl)ccc3Cl)o2)C(=O)NCc2cccnc2)cc1,"inconclusive: 10.4 µM [inhibitor, partial curve]",
CSc1nc2ccc3nc(NC(=O)c4ccccc4)sc3c2s1,"inconclusive: 18.5 µM [inhibitor, single point]",
CC(=O)c1c(C)[nH]c(C(=O)CSc2nnc(NC3CC3)s2)c1C,"inconclusive: 2.33 µM [inhibitor, partial curve]",
CN(CC(=O)Nc1ccc(F)cc1)C(=O)C1CCN(S(=O)(=O)c2ccc3c(c2)OCCO3)CC1,"inconclusive: 11.7 µM [inhibitor, partial curve]",

# Some of the entries so far, bar-delimited:
SMILES | Potency | activity change, negative = inhibition
Cc1ccc(C(=O)N/C(=C\c2ccc(-c3cc(Cl)ccc3Cl)o2)C(=O)NCc2cccnc2)cc1 | inconclusive: 10.4 µM [inhibitor, partial curve] | 
CSc1nc2ccc3nc(NC(=O)c4ccccc4)sc3c2s1 | inconclusive: 18.5 µM [inhibitor, single point] | 

# The list continues.

SMILES,Potency,"activity change, negative = inhibition"
COc1ccc2[nH]c(=O)c(CN(Cc3cccs3)C(=S)Nc3ccccc3)cc2c1,active: 4.65 µM,
CC(C)OC(=O)CC(=O)CSc1nc2c(cc1C#N)CCCCC2,,inactive: 79.8%
CCOCCCNC(=O)N[C@@H](C)C(=O)OC,"inconclusive: 13.1 µM [inhibitor, single point]",
CC(C)c1ccc([N+](=O)[O-])cc1S(=O)(=O)N1CCN(C)CC1,,inactive: 1.06%
C=CCc1cccc2cc(C(=O)N3CCN(C(=O)OCC)CC3)c(=O)oc12,"inconclusive: 18.5 µM [inhibitor, single point]",
CC(C(=O)Nc1nccs1)c1ccc([N+](=O)[O-])cc1 (stereo not drawn),,inactive: 61.8%
CCC(C)NC(=O)CSc1nnc(-c2cc(-c3cccs3)nc3ccccc23)o1 (stereo not drawn),"inconclusive: 18.5 µM [inhibitor, single point]",
O=C(NCCNC(=O)c1ccccc1F)c1ccccn1,,inactive: 22.2%
COc1ccc(C2(c3ccc(OC)cc3)NC(=O)N(CC(=O)Nc3cc(C)ccc3OC)C2=O)cc1,"inconclusive: 0.185 µM [inhibitor, full curve, poor fit]",
COc1ccccc1N1CCN(S(=O)(=O)c2ccc(-n3cnnn3)c(C)c2)CC1,active: 1.65 µM,
Cc1nc(C(F)(F)F)c(C(=O)N/N=C(\N)c2ccccn2)s1,"inconclusive: 4.15 µM [inhibitor, partial curve, poor fit]",
COc1ccc(N(C)S(=O)(=O)c2cccc(C(=O)Nc3nnc(C4CC4)s3)c2)cc1,"inconclusive: 1.85 µM [inhibitor, partial curve]",
CCn1c(SCC(=O)NC(C)C(C)C)nc2cc(S(=O)(=O)N3CCOCC3)ccc21 (stereo not drawn),"inconclusive: 9.28 µM [inhibitor, partial curve, poor fit]",
Cc1nnc(Sc2nc3c(c(=O)[nH]c(=O)n3C)n2Cc2ccccc2)s1,,inactive: -11.4%
CSc1ncc(Cl)c(C(=O)Nc2cccc(Cl)c2)n1,"inconclusive: 10.4 µM [inhibitor, single point]",
COc1ccc(C)cc1S(=O)(=O)N1CCN(C/C=C/c2ccccc2)CC1,"inconclusive: 18.5 µM [inhibitor, single point]",
COc1ccc(NC(=O)CN(C)C(=O)C2CCCO2)cc1 (stereo not drawn),,inactive: -18.7%
COc1ccc(-c2cc(CCCC(=O)NCCc3ccc(OC)cc3OC)no2)cc1,"inconclusive: 18.5 µM [inhibitor, single point]",
CCN(CC)S(=O)(=O)c1ccc2[nH]c(=O)cc(C(=O)Nc3ccc(C)cc3)c2c1,"inconclusive: 11.7 µM [inhibitor, single point]",
CN1C(=O)C(=Cc2sc(=O)n(-c3ccccc3)c2N2CCCCC2)C(=O)N(C)C1=O,"inconclusive: 0.522 µM [inhibitor, full curve]",
Cc1onc(-c2c(Cl)cccc2Cl)c1C(=O)NCCc1ccncc1,"inconclusive: 18.5 µM [inhibitor, partial curve, poor fit]",
O=C1/C(=N\S(=O)(=O)c2cccs2)C([n+]2ccc(CCCc3ccccc3)cc2)=C([O-])c2ccccc21,active: 1.04 µM,
